# Source: the supplement of paper PMC4635364
# Where a name gives a salt, the structure may show the parent alone. Some of the results follow. This data set is noisy: repeats of one test often differ as much as different tests do.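 Human fetal ventral-midbrain neural progenitor line ReNCell VM, differentiated without mitogens. Images stained for doublecortin (early neurons) or tyrosine hydroxylase (dopaminergic neurons) were scored by blinded raters against untreated wells (0 = no change). Repeats and both raters were averaged, and compounds averaging 2 or higher were picked as hits for retesting.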
# How the values were obtained:
# [1] = system: ReNCell VM; assay: neuronal differentiation score (DCX+ cell fraction vs untreated, manual image score) (score (-3 to 3)); higher = more neuronal differentiation; details: 2 uM, 2 weeks
# [2] = system: ReNCell VM; assay: dopaminergic neuron differentiation score (TH+ cell fraction vs untreated, manual image score) (score (0 to 3)); higher = more TH+ dopaminergic neuron differentiation; details: 2 uM, 4 weeks, BDNF 10 ng/ml + GDNF 10 ng/ml
compound,measurement,setting,value
N[C@@H](COP(=O)(O)O)C(=O)O,neuronal differentiation score,[1]; library: Spectrum,inactive: 0
same,dopaminergic neuron differentiation score,[2]; library: Spectrum,inactive: 0
CC1(C(=O)O)NCCc2cc(O)c(O)cc21 (stereo not given) [Salsolinol-1-carboxylic acid],neuronal differentiation score,[1]; library: Tocriscreen,inactive: 0
same,dopaminergic neuron differentiation score,[2]; library: Tocriscreen,inactive: 1
"CC(Cc1ccc(O)c(O)c1)C(C)Cc1ccc(O)c(O)c1 (stereo not given) [4,4'-(2,3-Dimethyltetramethylene)dipyrocatechol]",neuronal differentiation score,[1]; library: Phytochemical,inactive: 0
same,dopaminergic neuron differentiation score,[2]; library: Phytochemical,inactive: 0
CC1(C)CCC2=C(O1)c1ccccc1C(=O)C2=O [beta-Lapachone],neuronal differentiation score,[1]; library: LOPAC,inactive: 0
same,dopaminergic neuron differentiation score,[2]; library: LOPAC,inactive: 0
CCN[C@H]1C[C@H](C)S(=O)(=O)c2sc(S(N)(=O)=O)cc21 [Dorzolamide hydrochloride],neuronal differentiation score,[1]; library: Prestwick,inactive: 0
same,dopaminergic neuron differentiation score,[2]; library: Prestwick,inactive: 0
Cc1cc2nc3c(=O)[nH]c(=O)nc-3n(CC(O)C(O)C(O)COP(=O)(O)O)c2cc1C (stereo not given),neuronal differentiation score,[1]; library: Spectrum,inactive: 0
same,dopaminergic neuron differentiation score,[2]; library: Spectrum,inactive: 0
Oc1c(I)cc(Cl)c2cccnc12 [Clioquinol],neuronal differentiation score,[1]; library: Prestwick,inactive: 1
same,dopaminergic neuron differentiation score,[2]; library: Prestwick,inactive: 0
C[C@@H]1C(=O)C[C@H]2C(C)(C)CCC[C@]2(C)[C@@]1(O)CCc1ccoc1 [hispanolone],neuronal differentiation score,[1]; library: Natural,inactive: 0
same,dopaminergic neuron differentiation score,[2]; library: Natural,inactive: 0
Nc1cc(-c2ccncc2)c[nH]c1=O [Amrinone],neuronal differentiation score,[1]; library: Prestwick,inactive: 1
same,dopaminergic neuron differentiation score,[2]; library: Prestwick,inactive: 0
O=C(O[C@@H]1Cc2c(O)cc(O)cc2O[C@@H]1c1ccc(O)c(O)c1)c1cc(O)c(O)c(O)c1,neuronal differentiation score,[1]; library: Spectrum,inactive: 0
same,dopaminergic neuron differentiation score,[2]; library: Spectrum,inactive: 0
CO[C@@]1(NC(=O)C2SC(=C(C(N)=O)C(=O)O)S2)C(=O)N2C(C(=O)O)=C(CSc3nnnn3C)CS[C@@H]21 (stereo not given in full) [Cefotetan],neuronal differentiation score,[1]; library: Prestwick,inactive: 0
same,dopaminergic neuron differentiation score,[2]; library: Prestwick,inactive: 0
Clc1ccccc1CNCC1CCC(CNCc2ccccc2Cl)CC1 (stereo not given),neuronal differentiation score,[1]; library: Tocriscreen,inactive: 0
same,dopaminergic neuron differentiation score,[2]; library: Tocriscreen,inactive: 0
COCCCOc1ccnc(C[S+]([O-])c2nc3ccccc3[nH]2)c1C (stereo not given),neuronal differentiation score,[1]; library: Spectrum,inactive: 0
same,dopaminergic neuron differentiation score,[2]; library: Spectrum,inactive: 0
Cn1c(=O)c2[nH]cnc2n(C)c1=O [Aminophylline ethylenediamine],neuronal differentiation score,[1]; library: LOPAC,inactive: 0
same,dopaminergic neuron differentiation score,[2]; library: LOPAC,inactive: 0
O=C(c1ccccc1)c1ccc2n1CCC2C(=O)O (stereo not given) [Ketorolac tromethamine],neuronal differentiation score,[1]; library: Prestwick,inactive: 0
same,dopaminergic neuron differentiation score,[2]; library: Prestwick,inactive: 0
Nc1ccn([C@@H]2CS[C@H](CO)O2)c(=O)n1 [Lamivudine],neuronal differentiation score,[1]; library: Prestwick,inactive: 0
same,dopaminergic neuron differentiation score,[2]; library: Prestwick,inactive: 0
"CCCn1c(=O)c2[nH]c(-c3ccccc3)nc2n(CCC)c1=O [1,3-Dipropyl-8-phenylxanthine]",neuronal differentiation score,[1]; library: Tocriscreen,inactive: 0
same,dopaminergic neuron differentiation score,[2]; library: Tocriscreen,inactive: 0
CC1NC(=O)NC1=O (stereo not given),neuronal differentiation score,[1]; library: Spectrum,inactive: 0
same,dopaminergic neuron differentiation score,[2]; library: Spectrum,inactive: 0
O=C(O)c1ccc2cc(-c3ccc(O)c(C45CC6CC(CC(C6)C4)C5)c3)ccc2c1,neuronal differentiation score,[1]; library: Tocriscreen,inactive: 0
same,dopaminergic neuron differentiation score,[2]; library: Tocriscreen,inactive: 0
CC(C)c1ccc2c(c1)CCC1[C@](C)(CN)CCC[C@]21C (stereo not given in full),neuronal differentiation score,[1]; library: Spectrum,inactive: 0
same,dopaminergic neuron differentiation score,[2]; library: Spectrum,inactive: 0
"COC(=O)C[C@H]1C(C)(C)[C@@H](O)[C@@H]2CC3=C4CC(O)O[C@@H](c5ccoc5)[C@]4(C)CCC3[C@@]1(C)C2=O (stereo partly drawn) [3,16-DIDEOXYMEXICANOLIDE-3beta-DIOL]",neuronal differentiation score,[1]; library: Spectrum,inactive: 0
same,dopaminergic neuron differentiation score,[2]; library: Spectrum,inactive: 0
O=c1cc(-c2ccccc2)oc2cc(O)ccc12,neuronal differentiation score,[1]; library: Spectrum,inactive: 0
same,dopaminergic neuron differentiation score,[2]; library: Spectrum,inactive: 0
CN(C)[C@@H]1C(O)=C(C(N)=O)C(=O)[C@@]2(O)C(O)=C3C(=O)c4c(O)ccc(Cl)c4[C@@](C)(O)[C@H]3C[C@@H]12 [Chlortetracycline hydrochloride],neuronal differentiation score,[1]; library: Prestwick,inactive: 0
same,dopaminergic neuron differentiation score,[2]; library: Prestwick,inactive: 0
CC(=O)OCC(=O)[C@@]1(O)CC[C@H]2[C@@H]3CCC4=CC(=O)CC[C@]4(C)[C@H]3[C@@H](O)C[C@@]21C,neuronal differentiation score,[1]; library: Spectrum,inactive: 1
same,dopaminergic neuron differentiation score,[2]; library: Spectrum,inactive: 0
CC(c1cc2ccccc2s1)N(O)C(N)=O (stereo not given) [Zileuton],neuronal differentiation score,[1]; library: Prestwick,inactive: 0
same,dopaminergic neuron differentiation score,[2]; library: Prestwick,inactive: 0
CC1(C)[C@@H](OC(=O)CCC(=O)O)CC[C@]2(C)[C@H]3C(=O)C=C4[C@@H]5C[C@@](C)(C(=O)O)CC[C@]5(C)CC[C@@]4(C)[C@]3(C)CC[C@@H]12,neuronal differentiation score,[1]; library: Spectrum,inactive: 0
same,dopaminergic neuron differentiation score,[2]; library: Spectrum,inactive: 0
OC[C@H]1O[C@@H](O[C@@H]2[C@@H](CO)OC(O)(CO)[C@H]2O)[C@H](O)[C@@H](O)[C@H]1O (mixture of isomers),neuronal differentiation score,[1]; library: Spectrum,inactive: 0
same,dopaminergic neuron differentiation score,[2]; library: Spectrum,inactive: 1
CN1C(C(=O)Nc2ccccn2)=C(O)c2sccc2S1(=O)=O [Tenoxicam],neuronal differentiation score,[1]; library: Prestwick,inactive: 0
same,dopaminergic neuron differentiation score,[2]; library: Prestwick,inactive: 0
CC[C@H](CC[C@@H](C)[C@H]1CC[C@H]2[C@@H]3CC=C4C[C@@H](O)CC[C@]4(C)[C@H]3CC[C@]12C)C(C)C [beta-SITOSTEROL],neuronal differentiation score,[1]; library: Spectrum,inactive: 0
same,dopaminergic neuron differentiation score,[2]; library: Spectrum,inactive: 0
CN(C)CCOC(c1ccccc1)c1ccccc1.Cn1c(=O)c2[nH]c(Cl)nc2n(C)c1=O,neuronal differentiation score,[1]; library: Spectrum,inactive: 1
same,dopaminergic neuron differentiation score,[2]; library: Spectrum,inactive: 0
COc1ccc(-c2cc(=O)c3c(O)cc(OC)cc3o2)cc1,neuronal differentiation score,[1]; library: Spectrum,inactive: 0
same,dopaminergic neuron differentiation score,[2]; library: Spectrum,inactive: 0
Nc1cc(N2CCCCC2)nc(N)[n+]1[O-],neuronal differentiation score,[1]; library: Spectrum,inactive: 0
same,dopaminergic neuron differentiation score,[2]; library: Spectrum,inactive: 0
C=CCc1ccc(O)c(-c2ccc(O)c(CC=C)c2)c1 [Honokiol],neuronal differentiation score,[1]; library: Phytochemical,inactive: 0
same,dopaminergic neuron differentiation score,[2]; library: Phytochemical,inactive: 0
CC(=O)O[C@]1(C(C)=O)CC[C@H]2[C@@H]3C=C(C)C4=CC(=O)CC[C@]4(C)[C@H]3CC[C@@]21C,neuronal differentiation score,[1]; library: Spectrum,inactive: 0
same,dopaminergic neuron differentiation score,[2]; library: Spectrum,inactive: 0
CCOC(=O)OC(C)OC(=O)[C@@H]1N2C(=O)[C@@H](NC(=O)[C@H](N)c3ccccc3)[C@H]2SC1(C)C (stereo not given in full) [Bacampicillin hydrochloride],neuronal differentiation score,[1]; library: Prestwick,inactive: 0
same,dopaminergic neuron differentiation score,[2]; library: Prestwick,inactive: 0

# 3 entries picked at random from those above, as already listed:
compound,measurement,setting,value
CC(C)c1ccc2c(c1)CCC1[C@](C)(CN)CCC[C@]21C (stereo not given in full),dopaminergic neuron differentiation score,[2]; library: Spectrum,inactive: 0
Cn1c(=O)c2[nH]cnc2n(C)c1=O [Aminophylline ethylenediamine],neuronal differentiation score,[1]; library: LOPAC,inactive: 0
CCOC(=O)OC(C)OC(=O)[C@@H]1N2C(=O)[C@@H](NC(=O)[C@H](N)c3ccccc3)[C@H]2SC1(C)C (stereo not given in full) [Bacampicillin hydrochloride],neuronal differentiation score,[1]; library: Prestwick,inactive: 0
